Experimental data from paper doi:10.1101/2025.08.05.667964.
No constants are given. Whether binding was seen depends on the method and setting. Binding seen in cells or lysates may run through a third protein. Some binding calls cover weakened binding; strength is not graded here. Where a sequence is shown, tags or fusion partners need not be part of it.

Chains of the proteins cited; added tags and fusions are not shown.
UniProt P45973: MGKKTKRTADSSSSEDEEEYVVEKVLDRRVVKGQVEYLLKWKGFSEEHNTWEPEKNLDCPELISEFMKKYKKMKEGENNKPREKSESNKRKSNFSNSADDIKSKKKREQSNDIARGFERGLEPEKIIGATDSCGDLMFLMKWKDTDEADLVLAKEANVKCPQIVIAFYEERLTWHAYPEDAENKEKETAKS

T1: GFP-CHAMP1 (human) (UniProt Q96JM3)
T1 sequence: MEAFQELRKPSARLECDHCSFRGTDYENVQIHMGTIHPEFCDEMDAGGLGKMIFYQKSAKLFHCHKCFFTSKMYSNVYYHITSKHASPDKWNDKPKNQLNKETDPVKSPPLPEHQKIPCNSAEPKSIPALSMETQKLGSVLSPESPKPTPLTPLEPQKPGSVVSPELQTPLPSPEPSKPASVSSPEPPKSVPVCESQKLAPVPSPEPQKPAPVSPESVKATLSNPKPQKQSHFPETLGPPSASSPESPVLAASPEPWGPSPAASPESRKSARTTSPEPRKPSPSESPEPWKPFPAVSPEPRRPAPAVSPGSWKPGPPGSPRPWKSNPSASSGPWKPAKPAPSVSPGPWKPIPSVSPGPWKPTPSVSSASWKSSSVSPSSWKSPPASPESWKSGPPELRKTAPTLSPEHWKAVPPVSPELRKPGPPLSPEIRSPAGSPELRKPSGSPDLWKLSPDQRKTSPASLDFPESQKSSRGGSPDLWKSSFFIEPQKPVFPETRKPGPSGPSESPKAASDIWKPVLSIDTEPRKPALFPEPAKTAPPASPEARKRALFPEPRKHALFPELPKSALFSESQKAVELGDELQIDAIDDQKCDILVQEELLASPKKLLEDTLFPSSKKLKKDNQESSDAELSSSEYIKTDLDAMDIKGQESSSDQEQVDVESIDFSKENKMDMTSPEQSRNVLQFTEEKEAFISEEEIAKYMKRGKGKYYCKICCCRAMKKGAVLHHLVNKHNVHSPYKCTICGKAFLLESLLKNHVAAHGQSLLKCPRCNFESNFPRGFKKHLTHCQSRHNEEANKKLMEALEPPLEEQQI

B1: POGZ (protein, UniProt Q7Z3K3 1-1410)
chain: MADTDLFMECEEEELEPWQKISDVIEDSVVEDYNSVDKTTTVSVSQQPVSAPVPIAAHASVAGHLSTSTTVSSSGAQNSDSTKKTLVTLIANNNAGNPLVQQGGQPLILTQNPAPGLGTMVTQPVLRPVQVMQNANHVTSSPVASQPIFITTQGFPVRNVRPVQNAMNQVGIVLNVQQGQTVRPITLVPAPGTQFVKPTVGVPQVFSQMTPVRPGSTMPVRPTTNTFTTVIPATLTIRSTVPQSQSQQTKSTPSTSTTPTATQPTSLGQLAVQSPGQSNQTTNPKLAPSFPSPPAVSIASFVTVKRPGVTGENSNEVAKLVNTLNTIPSLGQSPGPVVVSNNSSAHGSQRTSGPESSMKVTSSIPVFDLQDGGRKICPRCNAQFRVTEALRGHMCYCCPEMVEYQKKGKSLDSEPSVPSAAKPPSPEKTAPVASTPSSTPIPALSPPTKVPEPNENVGDAVQTKLIMLVDDFYYGRDGGKVAQLTNFPKVATSFRCPHCTKRLKNNIRFMNHMKHHVELDQQNGEVDGHTICQHCYRQFSTPFQLQCHLENVHSPYESTTKCKICEWAFESEPLFLQHMKDTHKPGEMPYVCQVCQYRSSLYSEVDVHFRMIHEDTRHLLCPYCLKVFKNGNAFQQHYMRHQKRNVYHCNKCRLQFLFAKDKIEHKLQHHKTFRKPKQLEGLKPGTKVTIRASRGQPRTVPVSSNDTPPSALQEAAPLTSSMDPLPVFLYPPVQRSIQKRAVRKMSVMGRQTCLECSFEIPDFPNHFPTYVHCSLCRYSTCCSRAYANHMINNHVPRKSPKYLALFKNSVSGIKLACTSCTFVTSVGDAMAKHLVFNPSHRSSSILPRGLTWIAHSRHGQTRDRVHDRNVKNMYPPPSFPTNKAATVKSAGATPAEPEELLTPLAPALPSPASTATPPPTPTHPQALALPPLATEGAECLNVDDQDEGSPVTQEPELASGGGGSGGVGKKEQLSVKKLRVVLFALCCNTEQAAEHFRNPQRRIRRWLRRFQASQGENLEGKYLSFEAEEKLAEWVLTQREQQLPVNEETLFQKATKIGRSLEGGFKISYEWAVRFMLRHHLTPHARRAVAHTLPKDVAENAGLFIDFVQRQIHNQDLPLSMIVAIDEISLFLDTEVLSSDDRKENALQTVGTGEPWCDVVLAILADGTVLPTLVFYRGQMDQPANMPDSILLEAKESGYSDDEIMELWSTRVWQKHTACQRSKGMLVMDCHRTHLSEEVLAMLSASSTLPAVVPAGCSSKIQPLDVCIKRTVKNFLHKKWKEQAREMADTACDSDVLLQLVLVWLGEVLGVIGDCPELVQRSFLVASVLPGPDGNINSPTRNADMQEELIASLEEQLKLSGEHSESSTPRPRSSPEETIEPESLHQLFEGESETESFYGFEEADLDLMEI

Target: T1, GFP-CHAMP1 (human)
Assay: co-IP

| Molecule | binding |
| --- | --- |
| HP1α (from UniProt P45973 1-191) | binds |
| B1 | binds |
